These results are taken from patent publication US5698523A (Merrell Pharmaceuticals Inc., priority 1996, dated 1997).

The data set can be described thus: general procedure: peptide synthesis; IBCF/NMM (mixed anhydride). The following applies: late stage modification step.

With “(E)-N-(1,1-Dimethylethoxy)carbonyl!-L-alanyl-L-alanyl-N-2-(acetyloxy)-3, 3,3-trifluoro-1-(1-methylethyl)-1-propenyl!-L-prolinamide (SEQ. ID NO. 2)”, the “crude purity (method not given)” value was determined as 91% and the step yield is listed as 50% yield.
